Results reported in article PMC3025356, “Mechanism of the Ca^2+-Dependent Interaction between S100A4 and Tail Fragments of Nonmuscle Myosin Heavy Chain IIA” (Journal of Molecular Biology, 2011).

Tests used:
[1] = Isothermal titration calorimetry of Ca^2+ binding to S100A4 constructs; settings: for cooperativity of Ca^2+ binding: 10 °C
Protocol: Fig. 2 ITC records for Ca^2+ binding to S100A4 constructs: (a) 75 μM wild type at 30 °C; (b) 75 μM wild type at 10 °C; (c) 75 μM E33Q construct at 30 °C; (d) 300 μM D63N construct at 30 °C. For mutant constructs data at 10 °C, see Fig. S1. All preparations were dialysed against the same buffer of 20 mM NaCl, 10 mM Hepes, and 2 mM DTT (pH 7.5).
ITC data were collected using a VP-ITC microcalorimeter (MicroCal Ltd., Northampton, MA) and analysed by fitting to a single-site binding equation or a two-site binding equation using MicroCal Origin software.

M200 filaments = assay: Stopped-flow turbidity, dissociation of M200 filaments on NaCl jump or dilution; type: biochemical, human; settings: 20 μM S100A4, NaCl jump
Protocol: Fig. 9 Dissociation of M200 filaments by S100A4. (a) Initially, M200 was added (i) from a concentrated stock in 0.5 M NaCl to give a final concentration of 5 μM M200 (with respect to the polypeptide chain) in 100 mM NaCl, 10 mM Hepes, and 0.1 mM Ca^2+ at pH 7.5 and 20 °C. A biphasic rise in turbidity was recorded for 200 s (continuous line). Then 10 μM S100A4 (with respect to monomer concentration) was added (ii), followed by 0.2 mM EGTA (iii) and 1 mM Ca^2+ (iv). […] (b) M200 was diluted (i) into 100 mM NaCl to form filaments as in (a), then 5 μM S100A4 was added (ii), causing a 54% drop in turbidity. A further 5 μM S100A4 (iii) caused turbidity to fall to almost zero. (c) Stopped-flow records monitoring the dissociation of 5 μM M200 filaments on jumping [NaCl] from 100 mM to 120 mM NaCl. Other components of the buffer were 20 mM Hepes, 1 mM Mg^2+, and 100 μM Ca^2+ at pH 7.5 and 20 °C. […] In the presence of 20 μM S100A4 (lower trace), the turbidity decreased by 87% with a rate constant of 0.2 s^− 1.
It is of interest to know whether S100A4 drives depolymerisation solely by binding to free M monomer and allowing the polymer equilibrium to readjust (i.e., via k− 4 and k5), or whether S100A4 also binds to the filament bundle and actively depolymerises an M200 unit (via k6 and k− 7). […]

Row | Substance | cooperativity of Ca^2+ binding [1] | second Ca^2+ site detection ([1]; 20 °C, standard buffer) | S100A4 with prebound Ca^2+ ([1]; titration against EGTA) | amplitude, biphasic fit (M200 filaments)
1 | E33Q: S100A4 mutant compromised in the EF1 Ca^2+ binding loop | ∼ 1 cooperative |  |  | 
2 | S100A4: recombinant S100A4 expressed in E. coli BL21(DE3) | 1.6 ± 0.4 (cooperative) | the second site was not evident | about 20% | 85%
